# Experimental data from paper PMC11246488.
# Results are given in words; binding and its absence hold for the method and conditions named. Binding seen in cells or lysates may run through a third protein. Some results given as binding are weak or reduced against the parent protein; the word gives no strength. Where a sequence is shown, tags or fusion partners need not be part of it.
# T1: Nluc-Kdm4a (UniProt Q8BW72)
# T1 sequence: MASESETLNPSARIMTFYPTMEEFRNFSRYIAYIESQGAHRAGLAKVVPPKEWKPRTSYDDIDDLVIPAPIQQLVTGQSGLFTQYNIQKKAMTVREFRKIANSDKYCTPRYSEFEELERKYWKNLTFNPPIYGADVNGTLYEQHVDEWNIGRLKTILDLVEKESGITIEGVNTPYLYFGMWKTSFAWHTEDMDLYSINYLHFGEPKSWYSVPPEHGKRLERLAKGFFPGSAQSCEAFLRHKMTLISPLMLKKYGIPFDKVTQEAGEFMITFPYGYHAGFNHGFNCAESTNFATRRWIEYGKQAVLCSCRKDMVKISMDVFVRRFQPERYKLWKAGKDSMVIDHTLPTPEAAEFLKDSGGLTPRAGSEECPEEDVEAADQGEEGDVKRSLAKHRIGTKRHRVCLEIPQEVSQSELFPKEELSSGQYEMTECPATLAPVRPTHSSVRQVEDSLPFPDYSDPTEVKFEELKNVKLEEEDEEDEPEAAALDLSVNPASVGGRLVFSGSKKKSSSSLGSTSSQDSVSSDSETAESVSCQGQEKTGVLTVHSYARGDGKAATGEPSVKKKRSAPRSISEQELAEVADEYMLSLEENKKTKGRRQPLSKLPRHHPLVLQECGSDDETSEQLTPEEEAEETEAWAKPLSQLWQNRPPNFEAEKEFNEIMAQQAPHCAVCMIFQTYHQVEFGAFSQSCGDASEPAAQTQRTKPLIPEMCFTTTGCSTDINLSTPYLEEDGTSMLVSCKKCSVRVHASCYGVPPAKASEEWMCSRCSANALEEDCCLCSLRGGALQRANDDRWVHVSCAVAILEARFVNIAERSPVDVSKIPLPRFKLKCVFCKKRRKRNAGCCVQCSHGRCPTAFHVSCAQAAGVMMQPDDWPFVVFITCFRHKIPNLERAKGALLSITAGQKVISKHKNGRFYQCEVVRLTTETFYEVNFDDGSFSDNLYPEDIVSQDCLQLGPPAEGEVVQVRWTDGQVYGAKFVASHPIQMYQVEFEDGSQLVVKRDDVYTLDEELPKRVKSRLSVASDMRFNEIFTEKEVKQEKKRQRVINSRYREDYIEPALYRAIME
# T2: Flag-KDM4A (UniProt O75164)
# T2 sequence: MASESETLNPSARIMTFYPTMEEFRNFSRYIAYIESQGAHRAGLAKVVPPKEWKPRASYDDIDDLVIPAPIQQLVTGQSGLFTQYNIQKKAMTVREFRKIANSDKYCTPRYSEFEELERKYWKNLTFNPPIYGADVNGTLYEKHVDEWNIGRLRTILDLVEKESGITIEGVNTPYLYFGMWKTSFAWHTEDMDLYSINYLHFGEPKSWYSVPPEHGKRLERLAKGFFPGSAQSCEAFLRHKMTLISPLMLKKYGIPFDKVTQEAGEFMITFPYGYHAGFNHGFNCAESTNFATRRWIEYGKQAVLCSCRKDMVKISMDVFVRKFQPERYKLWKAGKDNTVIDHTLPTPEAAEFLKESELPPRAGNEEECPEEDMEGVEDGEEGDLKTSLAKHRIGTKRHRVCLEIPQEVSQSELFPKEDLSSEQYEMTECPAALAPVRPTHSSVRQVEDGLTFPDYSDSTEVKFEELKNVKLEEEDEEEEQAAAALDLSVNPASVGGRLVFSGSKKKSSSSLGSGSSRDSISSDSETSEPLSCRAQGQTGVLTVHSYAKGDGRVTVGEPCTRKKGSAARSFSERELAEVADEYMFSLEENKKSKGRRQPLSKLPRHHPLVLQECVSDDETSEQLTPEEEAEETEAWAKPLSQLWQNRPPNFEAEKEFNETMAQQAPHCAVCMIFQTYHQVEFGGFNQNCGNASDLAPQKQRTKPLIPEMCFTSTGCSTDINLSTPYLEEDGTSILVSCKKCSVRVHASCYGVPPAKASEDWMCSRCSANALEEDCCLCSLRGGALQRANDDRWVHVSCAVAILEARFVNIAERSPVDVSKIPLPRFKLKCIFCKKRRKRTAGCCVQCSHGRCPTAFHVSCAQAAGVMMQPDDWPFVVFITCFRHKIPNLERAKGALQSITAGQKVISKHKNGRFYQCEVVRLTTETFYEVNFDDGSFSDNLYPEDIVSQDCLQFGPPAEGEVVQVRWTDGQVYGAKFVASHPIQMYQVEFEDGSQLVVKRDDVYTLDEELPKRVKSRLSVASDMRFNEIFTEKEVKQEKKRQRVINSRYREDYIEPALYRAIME
# What was measured:
# Nluc-Kdm4a = target: T1, Nluc-Kdm4a; assay: split reporter; split firefly luciferase complementation in Neuro-2a cells; plasmids co-transfected 1:1 (200 ng per well), read 36 h after transfection in imaging buffer with D-luciferin
# Flag-KDM4A = target: T2, Flag-KDM4A; assay: co-IP; HEK293T cells stably co-transfected with Flag-KDM4A and HA-YTHDC2, cross-linked with 1 mM DSP in PBS for 30 min; lysis in 50 mM Tris pH 7.4, 150 mM NaCl, 1% Triton X-100, 1% sodium deoxycholate, 0.1% SDS, 5 mM EDTA; anti-Flag, anti-HA or IgG on protein G magnetic beads, overnight at 4 °C; western blot
binding (Nluc-Kdm4a),binding (Flag-KDM4A),Binder
binds,,"Ythdc2-Cluc (protein, UniProt B2RR83 1-1445) MSRPSSVSPRPPAPSGGGTGGGGGGSGGGGGGGGGGPASCGPGGGGRAKGLKDIRIDEEVKIAVNIALERFRYGDQREMEFPSSLTSTERAFIHRLSQSLGLVSKSKGKGANRYLTVKKKDGSETAHAMMTCNLTHNTKHAVRSLIQRFPVTNKERTELLPKTERGNVFAVEAENREMSKTSGRLNNGIPQVPVKRGESEFDSFRQSLPVFEKQEEIVKIIKENKVVLIVGETGSGKTTQIPQFLLDDCFKNGIPCRIFCTQPRRLAAIAVAERVAAERRERIGQTIGYQIRLESRVSPKTLLTFCTNGVLLRTLMAGDSTLSTVTHVIVDEVHERDRFSDFLLTKLRDLLQKHPTLKLILSSAALDVNLFIRYFGSCPVIYIQGRPFEVKEMFLEDILRTTGYTNKEMLKYKKEKQREEKQQTTLTEWYSAQENTFKPESQRQRAVASVSEEYDLLDDGGDAVFSQLTEKDVNCLEPWLIKEMDACLSDIWLHKDVDAFAQVFHLILTENVSVDYRHSETSATALMVAAGRGFTSQVEQLISMGANVHSKASNGWMALDWAKHFGQTEIVDLLESYSASLEFGNLDESSLVQTNGNDLSAEDRELLKAYHHSFDDEKVDLDLIMHLLYNICHSCDAGAILIFLPGYDEIVGLRDRILFDDKRFADNTHRYQVFMLHSNMQTSDQKKVLKNPPAGVRKIILSTNIAETSITVNDVVFVIDSGKVKEKSFDALNFVTMLKMVWISKASAIQRKGRAGRCRPGICFRLFSRLRFQNMLEFQTPELLRMPLQELCLHTKLLAPVNCTIADFLMKAPEPPPALIVRNAVQMLKTIDAMDAWEDLTELGYHLADLPVEPHLGKMVLCAVVLKCLDPILTIACTLAYRDPFVLPTQASQKRAAMLCRKRFTAGTFSDHMALLRAFQAWQKARSDGWERAFCEKNFLSQATMEIIIGMRTQLLGQLRASGFVRARGGGDIRDVNTNSENWAVVKAALVAGMYPNLVHVDRENVILTGPKEKKVRFHPTSVLSQPQYKKIPPANGQAAAIQALPTDWLIYDEMTRAHRIANIRCCSAVTPVTVLVFCGPARLASNALQEPSSFRADGIPNDSSDSEMEDRTTANLAALKLDEWLNFKLEPEAASLLLQLRQKWHSLFLRRMRAPSKPWSQVDEATIRAIIAVLSTEEQSAGLQQPSGIGQRPRPMSSEELPLASSWRSNNSRKSTADTEFADGSTTGERVLMKSPSPALHPPQKYKDRGILHPKRSTDDRSDQSSVKSTDSSSYPSPCASPSPPSSGKGSKSPSPRPNMPIRYFIMKSSNLRNLEISQQKGIWSTTPSNERKLNRAFWESSMVYLVFSVQGSGHFQGFSRMSSEIGREKSQDWGSAGLGGVFKVEWIRKESLPFQFAHHLLNPWNDNKKVQISRDGQELEPQVGEQLLQLWERLPLGEKTTSD"
,binds,"HA-YTHDC2 (protein, UniProt Q9H6S0 1-1430) MSRPSSVSPRQPAPGGGGGGGPSPCGPGGGGRAKGLKDIRIDEEVKIAVNIALERFRYGDQREMEFPSSLTSTERAFIHRLSQSLGLVSKSKGKGANRYLTVKKKDGSETAHAMMTCNLTHNTKHAVRSLIQRFPVTNKERTELLPKTERGNVFAVEAENREMSKTSGRLNNGIPQIPVKRGESEFDSFRQSLPVFEKQEEIVKIIKENKVVLIVGETGSGKTTQIPQFLLDDCFKNGIPCRIFCTQPRRLAAIAVAERVAAERRERIGQTIGYQIRLESRVSPKTLLTFCTNGVLLRTLMAGDSTLSTVTHVIVDEVHERDRFSDFLLTKLRDLLQKHPTLKLILSSAALDVNLFIRYFGSCPVIYIQGRPFEVKEMFLEDILRTTGYTNKEMLKYKKEKQQEEKQQTTLTEWYSAQENSFKPESQRQRTVLNVTDEYDLLDDGGDAVFSQLTEKDVNCLEPWLIKEMDACLSDIWLHKDIDAFAQVFHLILTENVSVDYRHSETSATALMVAAGRGFASQVEQLISMGANVHSKASNGWMALDWAKHFGQTEIVDLLESYSATLEFGNLDESSLVQTNGSDLSAEDRELLKAYHHSFDDEKVDLDLIMHLLYNICHSCDAGAVLIFLPGYDEIVGLRDRILFDDKRFADSTHRYQVFMLHSNMQTSDQKKVLKNPPAGVRKIILSTNIAETSITVNDVVFVIDSGKVKEKSFDALNFVTMLKMVWISKASAIQRKGRAGRCRPGICFRLFSRLRFQNMLEFQTPELLRMPLQELCLHTKLLAPVNCPIADFLMKAPEPPPALIVRNAVQMLKTIDAMDTWEDLTELGYHLADLPVEPHLGKMVLCAVVLKCLDPILTIACTLAYRDPFVLPTQASQKRAAMLCRKRFTAGAFSDHMALLRAFQAWQKARSDGWERAFCEKNFLSQATMEIIIGMRTQLLGQLRASGFVRARGGGDIRDVNTNSENWAVVKAALVAGMYPNLVHVDRENLVLTGPKEKKVRFHPASVLSQPQYKKIPPANGQAAAIKALPTDWLIYDEMTRAHRIANIRCCSAVTPVTILVFCGPARLASNALQEPSSFRVDGIPNDSSDSEMEDKTTANLAALKLDEWLHFTLEPEAASLLLQLRQKWHSLFLRRMRAPSKPWSQVDEATIRAIIAVLSTEEQSAGLQQPSGIGQRPRPMSSEELPLASSWRSNNSRKSSADTEFSDECTTAERVLMKSPSPALHPPQKYKDRGILHPKRGTEDRSDQSSLKSTDSSSYPSPCASPSPPSSGKGSKSPSPRPNMPVRYFIMKSSNLRNLEISQQKGIWSTTPSNERKLNRAFWESSIVYLVFSVQGSGHFQGFSRMSSEIGREKSQDWGSAGLGGVFKVEWIRKESLPFQFAHHLLNPWNDNKKVQISRDGQELEPLVGEQLLQLWERLPLGEKNTTD"
